Experimental data reported in publication PMC5648754, “CryoEM structure of Saccharomyces cerevisiae U1 snRNP offers insight into alternative splicing” (Nature Communications, 2017).
These are yes or no findings as the source states them, for the method shown. Binding seen in cells or lysates may run through a third protein. A yes stands for co-enrichment or nearness to the bait. Other partners may have been found.

Protein sequences, listed by entry. Tags and fused reporters are not part of them. Lines headed by an entry give the natural chain unless they say otherwise; changes in a name come on top.
UniProt P32605: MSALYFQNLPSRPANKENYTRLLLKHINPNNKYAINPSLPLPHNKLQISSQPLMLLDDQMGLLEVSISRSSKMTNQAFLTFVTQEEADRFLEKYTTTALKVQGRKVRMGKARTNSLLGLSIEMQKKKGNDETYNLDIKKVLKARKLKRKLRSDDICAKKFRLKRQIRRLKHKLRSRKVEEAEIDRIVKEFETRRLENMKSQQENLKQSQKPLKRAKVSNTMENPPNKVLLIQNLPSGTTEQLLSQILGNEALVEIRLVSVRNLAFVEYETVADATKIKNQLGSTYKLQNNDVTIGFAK
UniProt P34160: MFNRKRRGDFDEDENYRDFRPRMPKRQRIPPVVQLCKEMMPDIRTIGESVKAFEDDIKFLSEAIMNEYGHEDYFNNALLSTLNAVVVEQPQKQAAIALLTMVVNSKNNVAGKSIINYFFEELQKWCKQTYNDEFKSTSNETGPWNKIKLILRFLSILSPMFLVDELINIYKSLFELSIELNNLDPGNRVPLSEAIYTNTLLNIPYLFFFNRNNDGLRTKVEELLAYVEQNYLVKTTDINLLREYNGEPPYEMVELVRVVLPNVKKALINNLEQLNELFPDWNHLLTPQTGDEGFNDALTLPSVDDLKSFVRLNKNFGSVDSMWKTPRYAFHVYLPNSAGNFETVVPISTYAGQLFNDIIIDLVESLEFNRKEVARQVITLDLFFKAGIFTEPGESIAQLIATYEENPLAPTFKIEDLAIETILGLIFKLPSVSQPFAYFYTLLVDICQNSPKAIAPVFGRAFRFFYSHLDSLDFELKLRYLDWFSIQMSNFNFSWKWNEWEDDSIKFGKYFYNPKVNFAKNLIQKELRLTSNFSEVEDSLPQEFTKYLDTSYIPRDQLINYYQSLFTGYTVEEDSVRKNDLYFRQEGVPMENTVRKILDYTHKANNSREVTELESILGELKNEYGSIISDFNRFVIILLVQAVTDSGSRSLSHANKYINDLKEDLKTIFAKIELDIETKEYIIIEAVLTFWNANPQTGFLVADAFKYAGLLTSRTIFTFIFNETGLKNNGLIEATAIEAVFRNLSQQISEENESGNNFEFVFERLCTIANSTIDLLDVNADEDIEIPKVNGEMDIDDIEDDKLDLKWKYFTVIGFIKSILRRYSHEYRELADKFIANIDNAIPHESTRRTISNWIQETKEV
UniProt Q08920: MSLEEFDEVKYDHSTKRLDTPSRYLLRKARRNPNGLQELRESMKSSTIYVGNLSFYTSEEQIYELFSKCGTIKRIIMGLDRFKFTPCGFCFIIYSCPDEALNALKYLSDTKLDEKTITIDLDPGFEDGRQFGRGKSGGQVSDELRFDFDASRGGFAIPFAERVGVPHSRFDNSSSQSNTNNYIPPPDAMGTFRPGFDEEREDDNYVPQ
UniProt P39682: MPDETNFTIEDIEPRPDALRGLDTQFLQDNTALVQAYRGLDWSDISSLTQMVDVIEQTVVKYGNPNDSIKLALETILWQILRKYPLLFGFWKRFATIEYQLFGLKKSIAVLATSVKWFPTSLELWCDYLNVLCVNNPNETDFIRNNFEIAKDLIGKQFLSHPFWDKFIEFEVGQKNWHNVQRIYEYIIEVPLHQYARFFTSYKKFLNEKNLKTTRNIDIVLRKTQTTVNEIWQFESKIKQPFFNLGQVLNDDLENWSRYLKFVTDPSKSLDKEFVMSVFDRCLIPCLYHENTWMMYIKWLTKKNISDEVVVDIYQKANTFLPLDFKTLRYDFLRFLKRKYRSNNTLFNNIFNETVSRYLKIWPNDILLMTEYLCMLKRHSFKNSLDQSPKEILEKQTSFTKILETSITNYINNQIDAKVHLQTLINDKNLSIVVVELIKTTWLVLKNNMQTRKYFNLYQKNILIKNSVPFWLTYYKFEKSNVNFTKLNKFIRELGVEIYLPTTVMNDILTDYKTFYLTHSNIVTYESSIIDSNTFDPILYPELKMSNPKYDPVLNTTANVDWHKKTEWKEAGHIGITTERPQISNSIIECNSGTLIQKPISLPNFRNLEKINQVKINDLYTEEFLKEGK
UniProt P53207: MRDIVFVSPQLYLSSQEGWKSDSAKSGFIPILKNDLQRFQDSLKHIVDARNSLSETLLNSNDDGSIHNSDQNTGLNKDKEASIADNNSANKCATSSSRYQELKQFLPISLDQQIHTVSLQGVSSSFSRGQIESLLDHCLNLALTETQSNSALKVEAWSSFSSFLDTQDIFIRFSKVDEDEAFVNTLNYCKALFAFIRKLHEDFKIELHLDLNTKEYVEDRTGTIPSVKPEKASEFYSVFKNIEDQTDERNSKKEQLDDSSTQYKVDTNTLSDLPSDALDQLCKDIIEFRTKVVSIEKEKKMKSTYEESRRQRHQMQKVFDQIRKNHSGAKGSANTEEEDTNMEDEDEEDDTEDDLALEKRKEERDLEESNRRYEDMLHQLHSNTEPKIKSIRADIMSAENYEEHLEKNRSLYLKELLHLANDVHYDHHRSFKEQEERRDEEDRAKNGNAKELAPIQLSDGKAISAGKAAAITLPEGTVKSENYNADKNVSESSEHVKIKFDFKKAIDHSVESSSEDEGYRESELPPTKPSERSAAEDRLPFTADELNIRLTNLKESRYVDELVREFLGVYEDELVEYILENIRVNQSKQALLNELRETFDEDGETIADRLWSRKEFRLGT
UniProt Q00916: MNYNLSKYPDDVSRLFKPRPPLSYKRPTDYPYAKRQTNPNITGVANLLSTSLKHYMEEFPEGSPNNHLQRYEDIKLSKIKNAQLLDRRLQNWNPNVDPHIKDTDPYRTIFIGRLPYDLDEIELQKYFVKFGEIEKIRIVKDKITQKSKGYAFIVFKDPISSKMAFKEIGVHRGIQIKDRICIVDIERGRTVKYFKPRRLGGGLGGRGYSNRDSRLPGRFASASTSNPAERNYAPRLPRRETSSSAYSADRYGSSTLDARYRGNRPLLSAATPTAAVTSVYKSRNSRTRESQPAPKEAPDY

target: yeast U1A (Mud1), TAP-tagged (S. cerevisiae) (UniProt P32605); test: affinity purification with mass spectrometry; U1 snRNP purified from yeast through the TAP tag on U1A (IgG Sepharose, TEV, 10-30% glycerol gradient, calmodulin resin; 150 mM NaCl); components identified by SDS-PAGE and mass spectrometry

Molecule	binding
yeast NCBP1, subunit of the nuclear cap-binding protein complex (from UniProt P34160 1-861)	binds
yeast NCBP2, subunit of the nuclear cap-binding protein complex (from UniProt Q08920 1-208)	binds
yeast Prp39 (from UniProt P39682 1-629)	binds
yeast Snu71 (from UniProt P53207 1-620)	binds
yeast U1-70K (from UniProt Q00916 1-300)	binds
yeast U1C (natural protein, S. cerevisiae, UniProt Q05900 1-231, looked up, U1C of S. cerevisiae U1 snRNP, 231 residues; NTD residues 1-48; residues 3-47 and 48-195 modelled; also called Yhc1; source: endogenous, S. cerevisiae; co-purified in U1 snRNP through the TAP tag on U1A) MTRYYCEYCHSYLTHDTLSVRKSHLVGKNHLRITADYYRNKARDIINKHNHKRRHIGKRGRKERENSSQNETLKVTCLSNKEKRHIMHVKKMNQKELAQTSIDTLKLLYDGSPGYSKVFVDANRFDIGDLVKASKLPQRANEKSAHHSFKQTSRSRDETCESNPFPRLNNPKKLEPPKILSQWSNTIPKTSIFYSVDILQTTIKESKKRMHSDGIRKPSSANGYKRRRYGN	binds
yeast Prp42 (natural protein, S. cerevisiae, UniProt Q03776 1-544, looked up, Prp42 of S. cerevisiae, 544 residues; residues 2-540 modelled; source: endogenous, S. cerevisiae; co-purified in U1 snRNP through the TAP tag on U1A) MDKYTALIHDENFSTLTLNVSRYPKSLAYWEKLLNYIVKASAPICKSTEPQLLKLIRCTYSSMLNEFPYLENYYIDFALLEYKLGNVSMSHKIFQRGLQAFNQRSLLLWTSYLKFCNNVISHQKQLFKKYETAEEYVGLHFFSGEFWDLYLEQISSRCTSSKKYWNVLRKILEIPLHSFSKFYALWLQRIDDIMDLKQLSQLTSKDELLKKLKIDINYSGRKGPYLQDAKKKLKKITKEMYMVVQYQVLEIYSIFESKIYINYYTSPETLVSSDEIETWIKYLDYTITLQTDSLTHLNFQRALLPLAHYDLVWIKYSKWLINSKNDLLGAKNVLLMGLKFSLKKTEIIKLLYSVICKLNEYVLLRNLLEKIESSYSDNVENVDDFEIFWDYLQFKTFCQNSLYSSRYSDSQSNGLLNKELFDKVWKRLSCKEKKSGQEILLNNLVQFYSKDTVEFVEKNIFQKIIEFGWEYYLQNGMFWNCYCRLIYFDTSRSYLDKRQYIVRKIWPQIDKKFAQSVLPSLTEFCESYFPEEMDTLEEMFTEEP	binds
yeast Nam8 (natural protein, S. cerevisiae, UniProt Q00539 1-523, looked up, Nam8 of S. cerevisiae, 523 residues; inter-RRM linker 289-302 and RRM3 303-383 and C-terminal tail modelled; source: endogenous, S. cerevisiae; co-purified in U1 snRNP through the TAP tag on U1A) MSYKQTTYYPSRGNLVRNDSSPYTNTISSETNNSSTSVLSLQGASNVSLGTTGNQLYMGDLDPTWDKNTVRQIWASLGEANINVRMMWNNTLNNGSRSSMGPKNNQGYCFVDFPSSTHAANALLKNGMLIPNFPNKKLKLNWATSSYSNSNNSLNNVKSGNNCSIFVGDLAPNVTESQLFELFINRYASTSHAKIVHDQVTGMSKGYGFVKFTNSDEQQLALSEMQGVFLNGRAIKVGPTSGQQQHVSGNNDYNRSSSSLNNENVDSRFLSKGQSFLSNGNNNMGFKRNHMSQFIYPVQQQPSLNHFTDPNNTTVFIGGLSSLVTEDELRAYFQPFGTIVYVKIPVGKCCGFVQYVDRLSAEAAIAGMQGFPIANSRVRLSWGRSAKQTALLQQAMLSNSLQVQQQQPGLQQPNYGYIPSSTCEAPVLPDNNVSSTMLPGCQILNYSNPYANANGLGSNNFSFYSNNNATNTQATSLLADTSSMDLSGTGGQQVIMQGSEAVVNSTNAMLNRLEQGSNGFMFA	binds
yeast Snu56 (natural protein, S. cerevisiae, UniProt Q03782 1-492, looked up, Snu56 of S. cerevisiae, 492 residues; N-terminal domain 47-254 and long helix 255-303 modelled; source: endogenous, S. cerevisiae; co-purified in U1 snRNP through the TAP tag on U1A) MRPRRRGLAYHHTKPKGQLSQGHYPTTSNDGQRRKVGNSEAFQSFDIWKNLDRIRSTKKNAGQFIKGSLLILPMRTEDKQQFDECMDELHKYISKDILRCYPQKEQKDEGMLFYIVLKDFNILDSCFVLSVLLAFQKRLWMAPSEKSYFRVPKNINLTGSFYLPKNIETGRGHIITSYRREQPSSSIVEVGFNVVPDFQQFQVKACHVSKFMNELSNFFSQVEFGKCEANVINYFKREYNRTYSQISLALYELPLIGDGLFDIKSYISKTRPIIETSKAQMIKHISEMKAYNEISGLQGDQFPRQQRPLSNSPSSNSISSSQTIEAGATSYQTQPQRHAVNKPSNVLNSSNRHSGPKTFEDGRYSEGNKPGFMTQDEIKQHCIGTIKASMDAVKKKSSYQILKTYVRCPRQNYIDIVYQNLNDLRSKTNCNIVVLNLNNLHESQMWLESLNTTNYTIFAQAPHPSTIRVISIGGVGEYIVKALELILNILEH	binds
yeast Luc7 (natural protein, S. cerevisiae, UniProt Q07508 1-261, looked up, Luc7 of S. cerevisiae, 261 residues; first (pseudo) Zn-finger modelled; source: endogenous, S. cerevisiae; co-purified in U1 snRNP through the TAP tag on U1A) MSTMSTPAAEQRKLVEQLMGRDFSFRHNRYSHQKRDLGLHDPKICKSYLVGECPYDLFQGTKQSLGKCPQMHLTKHKIQYEREVKQGKTFPEFEREYLAILSRFVNECNGQISVALQNLKHTAEERMKIQQVTEELDVLDVRIGLMGQEIDSLIRADEVSMGMLQSVKLQELISKRKEVAKRVRNITENVGQSAQQKLQVCEVCGAYLSRLDTDRRLADHFLGKIHLGYVKMREDYDRLMKNNRTTNASKTATTLPGRRFV	binds
yeast Prp40 (natural protein, S. cerevisiae, UniProt P33203 1-583, looked up, Prp40 of S. cerevisiae U1 snRNP; not modelled in the structure; source: endogenous, S. cerevisiae; co-purified in U1 snRNP through the TAP tag on U1A) MSIWKEAKDASGRIYYYNTLTKKSTWEKPKELISQEELLLRENGWKAAKTADGKVYYYNPTTRETSWTIPAFEKKVEPIAEQKHDTVSHAQVNGNRIALTAGEKQEPGRTINEEESQYANNSKLLNVRRRTKEEAEKEFITMLKENQVDSTWSFSRIISELGTRDPRYWMVDDDPLWKKEMFEKYLSNRSADQLLKEHNETSKFKEAFQKMLQNNSHIKYYTRWPTAKRLIADEPIYKHSVVNEKTKRQTFQDYIDTLIDTQKESKKKLKTQALKELREYLNGIITTSSSETFITWQQLLNHYVFDKSKRYMANRHFKVLTHEDVLNEYLKIVNTIENDLQNKLNELRLRNYTRDRIARDNFKSLLREVPIKIKANTRWSDIYPHIKSDPRFLHMLGRNGSSCLDLFLDFVDEQRMYIFAQRSIAQQTLIDQNFEWNDADSDEITKQNIEKVLENDRKFDKVDKEDISLIVDGLIKQRNEKIQQKLQNERRILEQKKHYFWLLLQRTYTKTGKPKPSTWDLASKELGESLEYKALGDEDNIRRQIFEDFKPESSAPTAESATANLTLTASKKRHLTPAVELDY	binds
